Source: paper PMC8946178
No constants are given. Whether binding was seen depends on the method and setting. In cells and extracts the contact can be indirect. These calls come from enrichment with a bait or labelling near it, and not all partners need be listed.

Molecular target: Flag-HSP70
Assay: affinity purification with mass spectrometry; HEK 293T cells transfected with Flag-HSP70; IP with anti-IgG/anti-Flag and protein A/G agarose beads; SDS-PAGE, silver stain, bands cut for mass spectrometry (Q-Exactive, Mascot 2.2)

binding: binds
B1: KANK2 (KN motif and ankyrin repeat domains 2) (protein, UniProt Q63ZY3 1-851)
chain: MAQVLHVPAPFPGTPGPASPPAFPAKDPDPPYSVETPYGYRLDLDFLKYVDDIEKGHTLRRVAVQRRPRLSSLPRGPGSWWTSTESLCSNASGDSRHSAYSYCGRGFYPQYGALETRGGFNPRVERTLLDARRRLEDQAATPTGLGSLTPSAAGSTASLVGVGLPPPTPRSSGLSTPVPPSAGHLAHVREQMAGALRKLRQLEEQVKLIPVLQVKLSVLQEEKRQLTVQLKSQKFLGHPTAGRGRSELCLDLPDPPEDPVALETRSVGTWVRERDLGMPDGEAALAAKVAVLETQLKKALQELQAAQARQADPQPQAWPPPDSPVRVDTVRVVEGPREVEVVASTAAGAPAQRAQSLEPYGTGLRALAMPGRPESPPVFRSQEVVETMCPVPAAATSNVHMVKKISITERSCDGAAGLPEVPAESSSSPPGSEVASLTQPEKSTGRVPTQEPTHREPTRQAASQESEEAGGTGGPPAGVRSIMKRKEEVADPTAHRRSLQFVGVNGGYESSSEDSSTAENISDNDSTENEAPEPRERVPSVAEAPQLRPAGTAAAKTSRQECQLSRESQHIPTAEGASGSNTEEEIRMELSPDLISACLALEKYLDNPNALTERELKVAYTTVLQEWLRLACRSDAHPELVRRHLVTFRAMSARLLDYVVNIADSNGNTALHYSVSHANFPVVQQLLDSGVCKVDKQNRAGYSPIMLTALATLKTQDDIETVLQLFRLGNINAKASQAGQTALMLAVSHGRVDVVKALLACEADVNVQDDDGSTALMCACEHGHKEIAGLLLAVPSCDISLTDRDGSTALMVALDAGQSEIASMLYSRMNIKCSFAPMSDDESPTSSSAEE
